# Patent US20150212068A1, “Cholyl-L-Lysyl-Fluorescein Assay” (Novassay SA, priority 2012, published 2015)
# At least one compound was matched to its structure with a doubt left.
# Test system: serum/plasma proteins
# Test: Effect of ANS on CLF recovery in the labelled-antibody format
# Type: in vitro ADME
# Conditions: human serum/plasma spiked with CLF, competitive immunoassay
# Text: This was successful in shifting the mean recovery to ˜100%. However, an unacceptably wide sample-to-sample variation was still observed (˜70-180%), therefore it was concluded that a blocker approach would be required, in which a chemical agent is used to displace the analyte from the binding proteins, so that it can be recovered effectively in the assay. […] ANS was therefore evaluated in more detail in this format.
# The following study was executed to assess the recovery of CLF following spiking into human serum in assays, in the presence and absence of ANS.
# 25 μl of standard (in buffer) was added to streptavidin coated wells, followed by 100 ul of 20 ng/ml biotin-fluorescein (one formulation containing 0.2% ANS, the other without) and 100 μl of anti-fluorescein HRP (100 ng/ml). After 30 minutes incubation (RT/static) the wells were washed and 100 μl of SureBlue Reserve TMB substrate added. After a further 10 minutes incubation, 100 μl of 1M HCl was added and the colour intensity measured at 450 nm.
# 3 plasma samples (Lithium heparin) were spiked with CLF at […]; these concentrations (the expected values) are noted in the relevant sample IDs.
structure (smiles),measurement,value
C[C@H](CCC(=O)O)[C@H]1CC[C@H]2[C@@H]3CC[C@@H]4C[C@H](O)CC[C@]4(C)[C@H]3C[C@H](O)[C@]12C [deoxycholic acid],displacement of CLF from serum/plasma proteins by blocker,able to displace CLF from serum proteins
